From PMC7819943, “Rice protein-binding microarrays: a tool to detect cis-acting elements near promoter regions in rice”
The list shows a part of the results.

Amino acid sequences for entries named in this document (tags omitted).
UniProt Q0JBA9, entry or part of it: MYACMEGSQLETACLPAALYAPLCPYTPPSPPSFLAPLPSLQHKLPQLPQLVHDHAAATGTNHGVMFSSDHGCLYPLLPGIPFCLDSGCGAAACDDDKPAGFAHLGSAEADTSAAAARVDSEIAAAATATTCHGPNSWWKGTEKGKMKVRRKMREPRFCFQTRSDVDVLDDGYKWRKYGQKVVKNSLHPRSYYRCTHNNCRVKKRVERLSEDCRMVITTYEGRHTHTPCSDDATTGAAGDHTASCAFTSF

Target: OsWRKY34 (Oryza sativa, UniProt Q0JBA9 1-250)
Experiment: protein-binding microarray (RPBM); PBS, 2% BSA, 51.3 ng/ul salmon testes DNA, 50 uM zinc acetate, 200 nM TF, 25 C, 1 h; high values mean tight binding
Settings: protein: recombinant; tags: N-terminal polyhistidine and DsRed monomer fusion (pET32a); label: CyDye5-dUTP incorporated in the synthesized complementary strand; 3' TTTTT single-stranded linker to array surface; dsDNA, one strand shown
Summary of the method: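 In PBS with 2% BSA, salmon testes DNA and 50 µM zinc acetate, 200 nM protein was incubated on a custom Agilent array at 25 °C for 1 h and then washed off. The array had been made double-stranded by primer extension with Cy5-dUTP and blocked with 2% BSA. The proteins were transcription factors fused N-terminally to polyhistidine and DsRed, expressed in E. coli BL21-CodonPlus and purified on Ni–NTA. The binding signal is per-feature fluorescence intensity (arbitrary units) from an Axon 4000B scanner.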

Going from “CTCAGCTCAGCTGCATGCTGCTGAGTGGCTGGGTGGGGTACGGAGTCACCTAGTGCAG” to “ACCACCACGCCACGCGACGCGAGGCTCCGCGCGCATCGCGCGGAGTCACCTAGTGCAG”, the binding signal falls from 9080 fluorescence intensity (a.u.) to 8660 fluorescence intensity (a.u.).

Compared with “GCGCTCGCGCGGCGGAGATCGGCTGCCACCGCGGGCGGGACGGAGTCACCTAGTGCAG”, “CCACCTCCACCGACGCCGCCGTCGTGTCGCCGTCTCCGAGCGGAGTCACCTAGTGCAG” is lower in binding signal: 9000 fluorescence intensity (a.u.) for the first, 8750 fluorescence intensity (a.u.) for the second.

Going from “CTGACTATTGTACTATTATTATTGTTACCTTCATCTTAAACGGAGTCACCTAGTGCAG” to “CAAAGTTGTGTGTTGTGAAGTGTGAAGGAGAGCTCTATTTCGGAGTCACCTAGTGCAG”, the binding signal rises from 8140 fluorescence intensity (a.u.) to 8610 fluorescence intensity (a.u.).

First: CATGCTTCCTTGTCCCATTACTACATCGTCGTTGTGTTCACGGAGTCACCTAGTGCAG
Second: TGGGTCATTTATTGATTATTGTATTATTGTTCCTTATATTCGGAGTCACCTAGTGCAG
The binding signal of the first is higher: 8750 fluorescence intensity (a.u.) for the first, 8710 fluorescence intensity (a.u.) for the second.

Compared with “CGCGCGCACCTACCTACCGTGAAATTTTCCCTTTTCTCCGCGGAGTCACCTAGTGCAG”, “AAAAAAGGCGCACACATGTACCCATTATCCATAAGTTAACCGGAGTCACCTAGTGCAG” is lower in binding signal: 8460 fluorescence intensity (a.u.) for the first, 8030 fluorescence intensity (a.u.) for the second.

Compared with “GTTCCATTTCCGCCTTGCTCGAGCCAGCAACCAAACTGCACGGAGTCACCTAGTGCAG”, “AAATACCGTTTCGTTTCCACCGTTTTTACTCCGATATTTTCGGAGTCACCTAGTGCAG” is higher in binding signal: 9220 fluorescence intensity (a.u.) for the first, 11700 fluorescence intensity (a.u.) for the second.

Going from “GTCCAAAATGTATCTTCCTGTGTTTTGAATTCCATTGTTTCGGAGTCACCTAGTGCAG” to “CTTTGGGAGTCGCACGCTTTCACCCTCTTCCACCTCTCGCCGGAGTCACCTAGTGCAG”, the binding signal falls from 10800 fluorescence intensity (a.u.) to 9260 fluorescence intensity (a.u.).

Going from “AGTTTGGTTACATGTCAGGCTGCATTTTTTACATTGATCACGGAGTCACCTAGTGCAG” to “CTCTCCTCTCCGGTCATCTCATATATACGTATCTATATCGCGGAGTCACCTAGTGCAG”, the binding signal falls from 9470 fluorescence intensity (a.u.) to 8520 fluorescence intensity (a.u.).

Compared with “GCCATGGTTTTCCGCACCCAACTTTAACCGTTCGTCTTATCGGAGTCACCTAGTGCAG”, “ATCAGGCGGGTATTTTGGATATTTAGGTTTAGGGAGGAGGCGGAGTCACCTAGTGCAG” is lower in binding signal: 9060 fluorescence intensity (a.u.) for the first, 8480 fluorescence intensity (a.u.) for the second.

First: TCTTAGTTTTGGCCATTTGCCATTGACTCTGTCCTTTTCTCGGAGTCACCTAGTGCAG
Second: TCCGGTTTAGTTAGTCCCTTTTTGGCCTATATTCCTCTAACGGAGTCACCTAGTGCAG
The binding signal of the first is lower: 9680 fluorescence intensity (a.u.) for the first, 13400 fluorescence intensity (a.u.) for the second.

First: TGACGGGGATGGTTAATATCTACTCACCATGAGGAATAAACGGAGTCACCTAGTGCAG
Second: CGTCTTCTATGTCGGCCCCTACCGGCCCGGTTTCCCTGCACGGAGTCACCTAGTGCAG
The binding signal of the first is lower: 8630 fluorescence intensity (a.u.) for the first, 8790 fluorescence intensity (a.u.) for the second.

Compared with “GCCGCCGCCGCCACCATCGCCGGCGCGTCACAGTCCACCACGGAGTCACCTAGTGCAG”, “TAGCTGATACTAGTGTGTTTTCTTTCTTGGTTGCTTTGATCGGAGTCACCTAGTGCAG” is higher in binding signal: 8070 fluorescence intensity (a.u.) for the first, 9940 fluorescence intensity (a.u.) for the second.

Going from “AACAACCACCACCGCCTCTGCCTCACCACCGTCCGAGTCGCGGAGTCACCTAGTGCAG” to “GGAGTTTTAATAATGATTTTAGGGTGGGTGGAAAGATTACCGGAGTCACCTAGTGCAG”, the binding signal rises from 8820 fluorescence intensity (a.u.) to 9760 fluorescence intensity (a.u.).

Going from “GCATGCTCTTCTGATCTGTAATCTCAGGCTCTATTACTCTCGGAGTCACCTAGTGCAG” to “CATAAGTTCGTACCACTGACTATATATACCAATGCATCCTCGGAGTCACCTAGTGCAG”, the binding signal rises from 8790 fluorescence intensity (a.u.) to 9590 fluorescence intensity (a.u.).

Going from “AAAAATCAGGTGAAATTTCTGCTCTCTCATCACTTGTCCACGGAGTCACCTAGTGCAG” to “CTGGTTACTTTCTCATTTCTTCCTCGCTCGCGCGCTCTCTCGGAGTCACCTAGTGCAG”, the binding signal rises from 8700 fluorescence intensity (a.u.) to 10800 fluorescence intensity (a.u.).

Going from “ATATGCAGGATTGCATGTGGTTGTTACTTTACATTCATTTCGGAGTCACCTAGTGCAG” to “TCTCTGTCTCACTCTTCCTCTCTCTCACACGCACGGCGAGCGGAGTCACCTAGTGCAG”, the binding signal falls from 9030 fluorescence intensity (a.u.) to 8380 fluorescence intensity (a.u.).

Compared with “AGCTCAGTGCCCTTTTCTTCCTCATTTTTTCTTAGTCCGGCGGAGTCACCTAGTGCAG”, “ACACTTTGACTCTTTGATTTAGTAAGCTCGAGTTTATTTTCGGAGTCACCTAGTGCAG” is higher in binding signal: 8860 fluorescence intensity (a.u.) for the first, 9030 fluorescence intensity (a.u.) for the second.

Compared with “TTTATGATCACATATGTGATACGTTCTTATCTTTATGTTGCGGAGTCACCTAGTGCAG”, “GATCCGTTGATTCATTTCCTTCCAAATTTCCCACACAATGCGGAGTCACCTAGTGCAG” is higher in binding signal: 8230 fluorescence intensity (a.u.) for the first, 11900 fluorescence intensity (a.u.) for the second.

Going from “CAATTGACAGGTCTTTGTTTGTTTTGTTTTTTTTTTTGCCCGGAGTCACCTAGTGCAG” to “CTGAGCTTCACGCCGTCCTCGCTCGCCGCGCTAAAAATTTCGGAGTCACCTAGTGCAG”, the binding signal falls from 9690 fluorescence intensity (a.u.) to 8890 fluorescence intensity (a.u.).

First: TAAATATGGACCCACGTGTTATCATGCACACGCCCACATCCGGAGTCACCTAGTGCAG
Second: CCGCCGCGCCGCTCGCCGCCTCCGCCACCGCCTCCGCCGGCGGAGTCACCTAGTGCAG
The binding signal of the first is lower: 10500 fluorescence intensity (a.u.) for the first, 12100 fluorescence intensity (a.u.) for the second.

Compared with “ACCCGAGATCTTTTATTGGTTTTGACTTCGGTTTTGGTATCGGAGTCACCTAGTGCAG”, “GCCATCCGCATGCATGCACGTGAACTACTCGATCCACCGCCGGAGTCACCTAGTGCAG” is higher in binding signal: 9660 fluorescence intensity (a.u.) for the first, 10400 fluorescence intensity (a.u.) for the second.
